Assay results from PMC8417012.
Results are given in words; binding and its absence hold for the method and conditions named. Some binding calls cover weakened binding; strength is not graded here. Sequences can lack the tags named with a protein.

The chains behind the UniProt entries cited, without tags or fusion partners.
UniProt O04192: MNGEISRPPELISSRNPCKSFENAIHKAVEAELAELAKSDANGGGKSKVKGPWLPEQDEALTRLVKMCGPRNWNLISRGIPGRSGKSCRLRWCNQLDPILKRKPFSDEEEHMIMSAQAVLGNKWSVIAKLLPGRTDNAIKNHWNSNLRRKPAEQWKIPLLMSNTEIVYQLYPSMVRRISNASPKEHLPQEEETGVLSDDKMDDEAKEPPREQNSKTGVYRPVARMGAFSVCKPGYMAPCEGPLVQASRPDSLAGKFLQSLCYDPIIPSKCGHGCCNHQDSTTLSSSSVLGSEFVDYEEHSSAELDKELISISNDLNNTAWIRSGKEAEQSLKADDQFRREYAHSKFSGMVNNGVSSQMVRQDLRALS
UniProt Q42575: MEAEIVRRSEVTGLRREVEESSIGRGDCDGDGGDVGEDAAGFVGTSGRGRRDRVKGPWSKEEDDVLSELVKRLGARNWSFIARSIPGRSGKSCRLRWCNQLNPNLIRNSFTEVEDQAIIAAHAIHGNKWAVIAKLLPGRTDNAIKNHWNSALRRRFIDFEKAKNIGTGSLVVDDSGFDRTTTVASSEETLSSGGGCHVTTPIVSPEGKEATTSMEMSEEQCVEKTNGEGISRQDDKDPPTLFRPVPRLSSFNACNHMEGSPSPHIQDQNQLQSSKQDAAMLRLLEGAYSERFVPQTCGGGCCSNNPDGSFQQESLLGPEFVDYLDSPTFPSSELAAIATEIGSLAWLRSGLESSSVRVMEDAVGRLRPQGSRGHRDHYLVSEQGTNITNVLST

Key:
Assay in all cases: two-hybrid; yeast; bait vector pBTM112-D9, prey plasmid pACT2; growth on SDIV medium without uracil and His; spots photographed 1 week after plating; which partner was bait is not stated
[1] = biological target: T1, BPM6 (yeast two-hybrid fusion) (Arabidopsis thaliana) (UniProt A1L4W5)
T1 sequence: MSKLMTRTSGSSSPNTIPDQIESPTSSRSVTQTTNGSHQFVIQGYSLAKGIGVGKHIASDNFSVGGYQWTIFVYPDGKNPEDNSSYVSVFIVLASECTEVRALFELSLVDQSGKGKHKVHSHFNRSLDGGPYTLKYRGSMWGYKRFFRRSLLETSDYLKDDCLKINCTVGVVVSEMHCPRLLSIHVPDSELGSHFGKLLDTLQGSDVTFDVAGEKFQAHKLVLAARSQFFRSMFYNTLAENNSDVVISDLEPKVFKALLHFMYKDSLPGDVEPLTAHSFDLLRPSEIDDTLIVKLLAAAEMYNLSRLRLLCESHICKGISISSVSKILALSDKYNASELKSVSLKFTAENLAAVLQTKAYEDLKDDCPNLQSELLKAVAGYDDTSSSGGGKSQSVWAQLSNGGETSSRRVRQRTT

[2] = biological target: T2, BPM5 (yeast two-hybrid fusion) (Arabidopsis thaliana) (UniProt Q1EBV6)
T2 sequence: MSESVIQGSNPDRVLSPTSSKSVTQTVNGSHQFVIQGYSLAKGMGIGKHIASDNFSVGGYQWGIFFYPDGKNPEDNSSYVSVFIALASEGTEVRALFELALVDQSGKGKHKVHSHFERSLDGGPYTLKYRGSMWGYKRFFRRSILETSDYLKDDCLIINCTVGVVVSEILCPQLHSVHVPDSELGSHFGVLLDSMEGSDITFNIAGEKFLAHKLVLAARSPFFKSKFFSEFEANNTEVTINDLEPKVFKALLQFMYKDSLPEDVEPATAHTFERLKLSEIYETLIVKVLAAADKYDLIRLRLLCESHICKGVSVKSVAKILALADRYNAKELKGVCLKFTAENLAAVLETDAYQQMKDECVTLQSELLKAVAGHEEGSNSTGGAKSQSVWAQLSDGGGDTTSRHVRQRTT

[3] = biological target: T3, BPM1 (yeast two-hybrid fusion) (Arabidopsis thaliana) (UniProt Q8L765)
T3 sequence: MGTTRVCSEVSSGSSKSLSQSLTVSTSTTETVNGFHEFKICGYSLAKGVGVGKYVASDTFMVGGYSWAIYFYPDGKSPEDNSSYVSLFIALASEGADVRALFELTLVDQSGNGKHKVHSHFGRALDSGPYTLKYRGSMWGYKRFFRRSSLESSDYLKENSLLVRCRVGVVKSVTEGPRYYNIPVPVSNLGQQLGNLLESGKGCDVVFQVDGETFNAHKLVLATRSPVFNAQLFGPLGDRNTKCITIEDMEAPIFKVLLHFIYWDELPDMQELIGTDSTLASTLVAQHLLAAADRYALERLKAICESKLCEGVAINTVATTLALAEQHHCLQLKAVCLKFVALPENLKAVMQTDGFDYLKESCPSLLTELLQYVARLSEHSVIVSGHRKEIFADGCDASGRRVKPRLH

[4] = biological target: T4, BPM3 (yeast two-hybrid fusion) (Arabidopsis thaliana) (UniProt O22286)
T4 sequence: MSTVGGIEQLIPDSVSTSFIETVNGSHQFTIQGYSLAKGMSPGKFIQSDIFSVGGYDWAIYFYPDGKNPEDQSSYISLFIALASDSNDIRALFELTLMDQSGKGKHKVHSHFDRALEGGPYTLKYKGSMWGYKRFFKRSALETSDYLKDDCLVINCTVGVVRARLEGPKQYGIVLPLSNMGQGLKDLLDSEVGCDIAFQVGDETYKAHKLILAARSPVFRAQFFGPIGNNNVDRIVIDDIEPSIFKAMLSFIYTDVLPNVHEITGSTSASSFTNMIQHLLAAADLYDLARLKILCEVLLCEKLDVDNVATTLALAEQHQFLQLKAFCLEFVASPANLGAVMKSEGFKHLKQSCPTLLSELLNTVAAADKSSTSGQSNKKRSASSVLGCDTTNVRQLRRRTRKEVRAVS

[5] = biological target: T5, BPM2 (yeast two-hybrid fusion) (Arabidopsis thaliana) (UniProt Q9M8J9)
T5 sequence: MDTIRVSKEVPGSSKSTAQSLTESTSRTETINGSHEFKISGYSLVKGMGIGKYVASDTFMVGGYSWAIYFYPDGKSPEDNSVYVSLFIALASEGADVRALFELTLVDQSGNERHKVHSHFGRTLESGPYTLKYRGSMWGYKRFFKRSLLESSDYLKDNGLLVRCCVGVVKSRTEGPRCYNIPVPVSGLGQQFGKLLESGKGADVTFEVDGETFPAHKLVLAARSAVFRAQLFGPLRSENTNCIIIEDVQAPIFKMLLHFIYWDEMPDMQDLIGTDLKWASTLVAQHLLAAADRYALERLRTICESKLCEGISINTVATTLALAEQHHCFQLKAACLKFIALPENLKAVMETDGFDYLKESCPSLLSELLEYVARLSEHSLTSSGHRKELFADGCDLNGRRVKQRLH

[6] = biological target: T6, BPM4 (yeast two-hybrid fusion) (Arabidopsis thaliana) (UniProt Q9SRV1)
T6 sequence: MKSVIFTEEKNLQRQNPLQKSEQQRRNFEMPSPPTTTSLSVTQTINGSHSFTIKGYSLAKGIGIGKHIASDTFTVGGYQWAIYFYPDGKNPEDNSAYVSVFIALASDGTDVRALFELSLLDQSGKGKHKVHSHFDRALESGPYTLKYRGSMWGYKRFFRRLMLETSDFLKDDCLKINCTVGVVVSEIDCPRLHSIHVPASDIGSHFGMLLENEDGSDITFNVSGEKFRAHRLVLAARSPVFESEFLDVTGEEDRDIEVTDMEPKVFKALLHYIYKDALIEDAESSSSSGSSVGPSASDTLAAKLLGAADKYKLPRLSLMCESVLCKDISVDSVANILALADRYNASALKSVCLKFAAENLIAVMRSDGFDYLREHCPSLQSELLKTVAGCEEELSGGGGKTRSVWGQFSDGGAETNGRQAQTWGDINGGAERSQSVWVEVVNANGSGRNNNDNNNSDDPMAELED

Measured: binding

MYB25 (yeast two-hybrid fusion) (from UniProt O04192 1-367)
binds: all assays above

MYB1 (yeast two-hybrid fusion) (from UniProt Q42575 1-393)
binds: all assays above
